Laboratory results published in article PMC8764063.
Results are given in words; binding and its absence hold for the method and conditions named. In cells and extracts the contact can be indirect. Here binding means that the protein was enriched with, or labelled near, the bait; the list need not be complete. For part of these data: No binding means not detected with the bait. For part of these data: Tags and fused reporters may be left off the sequences shown.

By UniProt entry, the sequences of proteins in these tests, tags left out. Where a name states a change or a piece, a line headed by the entry shows the natural chain unless it says otherwise. Chains listed by the source or under a name are the forms on record and can include a tag or linker.
UniProt P09874: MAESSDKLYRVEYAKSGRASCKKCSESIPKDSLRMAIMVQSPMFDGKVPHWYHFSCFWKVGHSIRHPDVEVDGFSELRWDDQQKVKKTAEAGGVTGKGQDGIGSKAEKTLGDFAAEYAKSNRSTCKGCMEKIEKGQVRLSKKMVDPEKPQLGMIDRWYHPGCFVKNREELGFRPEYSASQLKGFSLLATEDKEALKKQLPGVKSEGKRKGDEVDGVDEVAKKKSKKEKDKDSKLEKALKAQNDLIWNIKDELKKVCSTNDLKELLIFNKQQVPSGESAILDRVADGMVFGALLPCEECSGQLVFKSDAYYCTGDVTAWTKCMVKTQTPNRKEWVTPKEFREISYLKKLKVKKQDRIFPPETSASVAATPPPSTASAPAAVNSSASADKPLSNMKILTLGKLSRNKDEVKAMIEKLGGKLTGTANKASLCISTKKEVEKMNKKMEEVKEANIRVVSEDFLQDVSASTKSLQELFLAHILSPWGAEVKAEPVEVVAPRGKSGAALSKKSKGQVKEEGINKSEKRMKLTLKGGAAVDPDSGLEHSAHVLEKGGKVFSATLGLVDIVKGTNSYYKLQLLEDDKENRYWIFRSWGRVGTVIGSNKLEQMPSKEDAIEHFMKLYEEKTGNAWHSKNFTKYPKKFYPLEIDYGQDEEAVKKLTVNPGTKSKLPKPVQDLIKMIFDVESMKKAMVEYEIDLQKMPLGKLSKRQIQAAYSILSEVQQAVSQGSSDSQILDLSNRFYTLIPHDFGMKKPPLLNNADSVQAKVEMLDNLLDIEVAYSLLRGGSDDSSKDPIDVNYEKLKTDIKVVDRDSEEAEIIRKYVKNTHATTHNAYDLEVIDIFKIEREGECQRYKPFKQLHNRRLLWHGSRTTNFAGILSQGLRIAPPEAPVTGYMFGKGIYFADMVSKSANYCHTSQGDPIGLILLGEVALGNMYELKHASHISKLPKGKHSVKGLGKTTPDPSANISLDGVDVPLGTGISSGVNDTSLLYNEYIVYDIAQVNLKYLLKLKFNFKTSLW
SFB-tagged mutant tPARP1 (SFB-tPARP1 E988A) (P09874, form named): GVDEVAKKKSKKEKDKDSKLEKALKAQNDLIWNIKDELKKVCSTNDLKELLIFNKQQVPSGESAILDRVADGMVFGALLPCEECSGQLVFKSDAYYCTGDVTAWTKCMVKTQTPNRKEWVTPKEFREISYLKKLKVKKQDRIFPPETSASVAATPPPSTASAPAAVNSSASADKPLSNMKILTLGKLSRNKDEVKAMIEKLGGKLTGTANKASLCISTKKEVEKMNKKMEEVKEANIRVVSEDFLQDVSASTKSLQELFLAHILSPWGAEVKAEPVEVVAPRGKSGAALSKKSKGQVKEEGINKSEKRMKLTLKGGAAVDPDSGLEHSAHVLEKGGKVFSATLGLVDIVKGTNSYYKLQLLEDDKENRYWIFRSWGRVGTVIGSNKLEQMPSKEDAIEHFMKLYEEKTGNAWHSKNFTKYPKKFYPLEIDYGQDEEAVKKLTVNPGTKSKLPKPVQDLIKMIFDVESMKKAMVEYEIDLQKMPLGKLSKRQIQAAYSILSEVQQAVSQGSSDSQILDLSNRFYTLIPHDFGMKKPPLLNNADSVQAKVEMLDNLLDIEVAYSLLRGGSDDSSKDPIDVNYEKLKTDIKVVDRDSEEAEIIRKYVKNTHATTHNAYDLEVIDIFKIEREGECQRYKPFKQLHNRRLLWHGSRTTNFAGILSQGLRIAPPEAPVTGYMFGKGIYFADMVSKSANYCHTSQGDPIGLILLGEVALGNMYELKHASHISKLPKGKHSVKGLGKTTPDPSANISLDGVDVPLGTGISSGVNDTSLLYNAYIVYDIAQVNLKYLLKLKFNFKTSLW
UniProt Q9Y530: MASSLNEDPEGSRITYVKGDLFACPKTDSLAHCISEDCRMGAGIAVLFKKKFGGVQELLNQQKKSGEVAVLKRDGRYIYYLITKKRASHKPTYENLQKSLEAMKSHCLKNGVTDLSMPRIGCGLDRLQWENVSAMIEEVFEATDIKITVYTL
UniProt Q9NW08: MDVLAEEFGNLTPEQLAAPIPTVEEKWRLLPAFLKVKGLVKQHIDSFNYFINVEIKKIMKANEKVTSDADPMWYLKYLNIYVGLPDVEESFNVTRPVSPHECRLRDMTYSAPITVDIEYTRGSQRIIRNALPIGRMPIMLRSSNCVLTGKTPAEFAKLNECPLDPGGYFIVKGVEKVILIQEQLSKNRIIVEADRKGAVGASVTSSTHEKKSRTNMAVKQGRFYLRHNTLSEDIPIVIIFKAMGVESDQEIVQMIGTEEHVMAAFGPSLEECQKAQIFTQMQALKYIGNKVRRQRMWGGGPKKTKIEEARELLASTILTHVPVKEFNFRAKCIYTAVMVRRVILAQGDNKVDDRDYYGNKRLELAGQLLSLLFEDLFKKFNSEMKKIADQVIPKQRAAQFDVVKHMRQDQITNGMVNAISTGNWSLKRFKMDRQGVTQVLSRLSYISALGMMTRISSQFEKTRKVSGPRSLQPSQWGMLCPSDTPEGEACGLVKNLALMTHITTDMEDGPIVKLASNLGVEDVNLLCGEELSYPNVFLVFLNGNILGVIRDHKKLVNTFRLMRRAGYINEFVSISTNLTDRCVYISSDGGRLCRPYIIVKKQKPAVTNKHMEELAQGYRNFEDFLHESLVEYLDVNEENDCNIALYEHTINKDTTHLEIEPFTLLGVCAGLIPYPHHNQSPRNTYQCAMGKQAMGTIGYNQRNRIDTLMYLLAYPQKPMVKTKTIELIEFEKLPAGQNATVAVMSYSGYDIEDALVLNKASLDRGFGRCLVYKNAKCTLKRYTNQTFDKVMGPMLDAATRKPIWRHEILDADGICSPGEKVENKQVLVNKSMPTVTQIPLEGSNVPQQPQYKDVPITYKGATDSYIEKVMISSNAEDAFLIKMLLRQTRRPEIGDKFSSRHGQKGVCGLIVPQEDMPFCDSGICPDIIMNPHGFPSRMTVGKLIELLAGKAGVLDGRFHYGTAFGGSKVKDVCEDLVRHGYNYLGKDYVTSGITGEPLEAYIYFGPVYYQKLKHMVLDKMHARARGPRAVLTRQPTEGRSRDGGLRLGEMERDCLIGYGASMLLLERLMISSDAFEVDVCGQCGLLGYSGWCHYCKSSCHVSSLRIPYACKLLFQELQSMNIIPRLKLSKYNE
UniProt Q9H1D9: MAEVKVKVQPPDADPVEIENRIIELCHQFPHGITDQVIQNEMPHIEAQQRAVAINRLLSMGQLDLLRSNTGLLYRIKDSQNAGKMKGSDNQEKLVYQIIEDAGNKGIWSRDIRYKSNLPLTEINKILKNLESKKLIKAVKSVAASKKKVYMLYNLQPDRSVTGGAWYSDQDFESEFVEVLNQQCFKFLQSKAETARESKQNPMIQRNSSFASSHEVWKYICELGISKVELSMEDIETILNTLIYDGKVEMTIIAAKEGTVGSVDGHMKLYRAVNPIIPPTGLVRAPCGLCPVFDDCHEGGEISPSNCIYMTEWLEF
UniProt O14802: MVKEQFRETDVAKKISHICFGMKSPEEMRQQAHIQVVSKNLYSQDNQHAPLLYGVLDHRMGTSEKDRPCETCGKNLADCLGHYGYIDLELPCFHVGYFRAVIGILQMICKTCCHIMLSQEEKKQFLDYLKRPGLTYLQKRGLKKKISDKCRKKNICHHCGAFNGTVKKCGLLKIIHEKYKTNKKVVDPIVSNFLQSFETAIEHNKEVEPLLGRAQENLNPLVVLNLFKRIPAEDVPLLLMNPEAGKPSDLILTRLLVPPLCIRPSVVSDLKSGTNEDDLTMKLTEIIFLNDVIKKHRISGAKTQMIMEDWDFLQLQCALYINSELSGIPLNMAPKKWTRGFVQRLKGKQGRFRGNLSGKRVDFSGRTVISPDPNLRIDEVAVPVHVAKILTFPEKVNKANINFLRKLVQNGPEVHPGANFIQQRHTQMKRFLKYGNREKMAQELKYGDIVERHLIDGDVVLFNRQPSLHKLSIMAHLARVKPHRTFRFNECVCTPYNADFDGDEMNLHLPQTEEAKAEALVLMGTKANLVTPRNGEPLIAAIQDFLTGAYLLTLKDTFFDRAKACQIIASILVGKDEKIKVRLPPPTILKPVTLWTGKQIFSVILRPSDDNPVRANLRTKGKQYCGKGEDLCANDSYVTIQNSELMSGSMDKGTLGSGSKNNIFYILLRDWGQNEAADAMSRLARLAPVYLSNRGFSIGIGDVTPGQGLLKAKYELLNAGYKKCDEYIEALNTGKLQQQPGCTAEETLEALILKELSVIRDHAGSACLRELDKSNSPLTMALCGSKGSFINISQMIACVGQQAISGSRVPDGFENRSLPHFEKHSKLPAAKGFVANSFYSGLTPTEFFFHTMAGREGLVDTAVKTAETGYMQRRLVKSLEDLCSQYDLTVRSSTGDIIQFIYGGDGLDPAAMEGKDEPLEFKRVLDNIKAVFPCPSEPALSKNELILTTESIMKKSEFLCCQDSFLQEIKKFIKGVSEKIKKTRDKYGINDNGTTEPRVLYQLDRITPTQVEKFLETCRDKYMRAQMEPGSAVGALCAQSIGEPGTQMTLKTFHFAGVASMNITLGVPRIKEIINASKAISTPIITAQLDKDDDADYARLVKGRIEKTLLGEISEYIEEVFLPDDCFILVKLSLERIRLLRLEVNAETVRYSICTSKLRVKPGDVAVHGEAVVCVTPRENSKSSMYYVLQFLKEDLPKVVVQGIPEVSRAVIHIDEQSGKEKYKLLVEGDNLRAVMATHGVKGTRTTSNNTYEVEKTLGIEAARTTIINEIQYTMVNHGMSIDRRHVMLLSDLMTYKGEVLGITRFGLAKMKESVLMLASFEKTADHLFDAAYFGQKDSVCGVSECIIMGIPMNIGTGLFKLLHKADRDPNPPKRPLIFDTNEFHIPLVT

How the values were obtained:
Assay in all cases: affinity purification with mass spectrometry; SFB-tagged bait stably expressed in 293T cells; NETN100 lysate, soluble fraction; streptavidin beads 2 h at 4 °C, biotin elution, S-beads 2 h at 4 °C, four washes; SDS-PAGE, in-gel trypsin digestion, LC-MS/MS
[1] = biological target: SFB-tagged mutant tPARP1 (SFB-tPARP1 E988A) (human) (UniProt P09874)
[2] = biological target: SFB-tagged mutant PARP1 (SFB-PARP1 E988A) (human) (UniProt P09874)
[3] = biological target: SFB-tagged mutant TARG1 (SFB-TARG1 D125A) (UniProt Q9Y530)
[4] = biological target: T1, SFB-tagged mutant PARG (SFB-PARG E756A) (UniProt Q86W56)
T1 sequence: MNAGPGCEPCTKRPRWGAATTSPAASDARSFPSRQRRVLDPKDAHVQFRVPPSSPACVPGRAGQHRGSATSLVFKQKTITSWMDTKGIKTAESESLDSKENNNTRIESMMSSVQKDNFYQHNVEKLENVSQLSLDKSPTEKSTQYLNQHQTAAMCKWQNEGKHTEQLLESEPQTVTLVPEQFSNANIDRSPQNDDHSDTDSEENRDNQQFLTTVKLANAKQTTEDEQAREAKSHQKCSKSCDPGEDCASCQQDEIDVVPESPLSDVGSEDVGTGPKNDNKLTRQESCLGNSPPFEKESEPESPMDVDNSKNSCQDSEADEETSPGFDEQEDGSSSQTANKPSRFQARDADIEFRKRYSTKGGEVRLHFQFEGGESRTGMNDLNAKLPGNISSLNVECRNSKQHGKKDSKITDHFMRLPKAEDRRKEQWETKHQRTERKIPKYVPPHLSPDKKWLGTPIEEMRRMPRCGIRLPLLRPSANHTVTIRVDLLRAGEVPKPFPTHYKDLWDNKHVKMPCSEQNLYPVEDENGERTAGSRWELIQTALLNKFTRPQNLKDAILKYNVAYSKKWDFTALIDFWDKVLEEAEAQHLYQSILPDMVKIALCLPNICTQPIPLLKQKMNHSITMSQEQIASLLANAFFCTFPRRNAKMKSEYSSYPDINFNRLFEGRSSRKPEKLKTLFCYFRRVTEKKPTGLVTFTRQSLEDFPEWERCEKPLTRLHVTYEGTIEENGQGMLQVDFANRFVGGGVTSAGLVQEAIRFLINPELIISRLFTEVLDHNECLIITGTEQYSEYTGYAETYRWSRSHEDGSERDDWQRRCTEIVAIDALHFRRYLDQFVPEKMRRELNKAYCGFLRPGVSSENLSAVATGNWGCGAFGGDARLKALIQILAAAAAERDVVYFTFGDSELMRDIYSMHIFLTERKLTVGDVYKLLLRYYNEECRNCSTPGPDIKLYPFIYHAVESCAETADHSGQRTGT

binding [1]	binding [2]	binding [3]	binding [4]	Substance
binds	no binding	binds	no binding	POLR3B, subunit of the RNA polymerase III (Pol III) complex, endogenous (from UniProt Q9NW08 1-1133)
binds	no binding	binds	no binding	POLR3F, subunit of the RNA polymerase III (Pol III) complex, endogenous (from UniProt Q9H1D9 1-316)
binds	no binding	binds	no binding	POLR3A, subunit of the RNA polymerase III (Pol III) complex, endogenous (from UniProt O14802 1-1390)
